Laboratory results from the supplement of paper PMC12823440, “Inhibitors supercharge kinase turnover through native proteolytic circuits” (Nature, 2025).
Where a name gives a salt, the structure may show the parent alone. This is one part of the list. Hit calls seldom repeat between salt and free forms of one compound.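 Kinases were expressed as nanoluciferase fusions in K562 cells and luminescence was read every 4 h between 2 and 18 h as percent of control, DMSO set to 100% and a positive control to 0%. A time point counts as decreased when the signal drops significantly (2 sigma). The hit call is the authors' own, does not follow from the count of time points alone, and its rule is not shown.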

What follows are molecules tested against SYK (UniProt P43405) (assay: number of time points (of 5) at which kinase-Nluc abundance scored as decreased, DMSO-normalised (count); higher = more persistent destabilization). Conditions: K562; 2-18 h.

Row | Compound | number of time points
1 | C[C@H]1Cc2ccccc2N1C(=O)Cc1nc(N2CCOCC2)cc(=O)[nH]1 (2.5 µM) | 0
2 | CC(C)c1cc(/C=C(\C#N)C(N)=O)cc(C(C)C)c1O (10 µM) | 0
3 | COc1c(C)c(C(=O)c2ccc(N)c(C(=O)O)c2)n2ccccc12 (10 µM) | 0
4 | C[C@@H]1CCc2ncc(F)cc2[C@H]2CCCN2c2ccn3ncc(c3n2)C(=O)N1 [Selitrectinib] (10 µM) | 0
5 | CCN(C)C(=O)c1ccc2c(C(=Nc3ccc(CN4CCCCC4)cc3)c3ccccc3)c(O)[nH]c2c1 (2.5 µM) | 0
6 | O=C(CO)N1CCC(c2n[nH]c(-c3ccc(Cl)cc3)c2-c2ccncn2)CC1 (10 µM) | 0
7 | C[C@@H]1COCCN1c1cc(C2([S@](C)(=N)=O)CC2)nc(-c2cc[nH]c3nccc2-3)n1 [Ceralasertib] (2.5 µM) | 0
8 | CCOC(=O)c1c2c3c(cccc3[nH]c1=O)C(=O)c1ccccc1-2 (10 µM) | 0
9 | O=C(c1ccc(Nc2nccc(-c3cc4ccccc4s3)n2)cc1)N1CCC(N2CCCC2)CC1 (2.5 µM) | 0
10 | Cc1ccc(-c2nn(C(C)(C)CNC(=O)c3ccncc3)c3ncnc(N)c23)cc1 (2.5 µM) | 0
11 | O=C(O)c1ccc(-c2c[nH]c3ncc(-c4ccccc4)cc23)cc1C1CCCC1 (2.5 µM) | 0
12 | CCOc1nc(Nc2ccc(C(=O)N3CCOCC3)cc2OC)nc2[nH]ccc12 [LRRK2 inhibitor 1] (2.5 µM) | 0
13 | CN(CC(=O)N(Cc1ccc(C2CCCCC2)cc1)c1ccc(C(=O)O)c(O)c1)S(=O)(=O)c1c(F)c(F)c(F)c(F)c1F (2.5 µM) | 0
14 | Nc1nc2cc(-c3ccc4ncc(C(=O)N5CCOCC5)n4c3)ccc2o1 [Serabelisib] (10 µM) | 0
15 | OCCN(CCO)c1ccc(C(c2ccc(Cl)cc2)c2ccc(N(CCO)CCO)cc2)cc1 (10 µM) | 0
16 | O=c1nc(N2CCOCC2)oc2c(-c3cccc4c3sc3ccccc34)cccc12 (10 µM) | 0
17 | c1ccc(-c2nn3c(c2-c2ccnc4cc(OCCN5CCOCC5)ccc24)CCC3)nc1 (10 µM) | 0

Row | Compound | number of time points
18 | O=C(Nc1ccc(Cl)c(Cl)c1)Nc1ccc2nnsc2c1 (10 µM) | 0
19 | N#C/C(=C(/N)Sc1ccc(N)cc1)c1ccccc1C(F)(F)F (10 µM) | 0
20 | O=c1ccoc2cc(O)ccc12 [7-Hydroxy-4H-chromen-4-one] (10 µM) | 0
21 | COc1cc(C(=O)N2CCC(N3CCN(C)CC3)CC2)ccc1Nc1ncc2c(n1)N(C)c1ccccc1C(=O)N2C (10 µM) | 0
22 | CC(=O)Nc1nc2ccc(-c3cnc(C)c(NC(=O)OC4CCCCC4)c3)cc2s1 (10 µM) | 0
23 | O=C1NC(=O)C(c2cn(-c3ccccc3)nc2-c2ccc(F)cc2)N1 (centres undefined) (10 µM) | 0
24 | CCCCNC(=N)NC(=N)N [Buformin (hydrochloride)] (2.5 µM) | 0
25 | C[C@H]1[C@H](OC(=O)CCC(=O)O)O[C@@H]2O[C@@]3(C)CC[C@H]4[C@H](C)CC[C@@H]1[C@@]24OO3 [Artesunate] (2.5 µM) | 0
26 | COc1ncc(Nc2ncc([C@@H](C)N3CCN(S(C)(=O)=O)CC3)cc2-c2nc(C)nc(N)n2)cc1F (10 µM) | 0
27 | COC1(C(=O)N[C@@H](C)c2ccc(-n3cc(F)cn3)nc2)CCC(c2nc(C)cc(Nc3cc(C)[nH]n3)n2)CC1 (stereo partly drawn) [trans-Pralsetinib] (2.5 µM) | 0
28 | CC(=O)NCCc1c[nH]c2ccc(O)cc12 [N-Acetyl-5-hydroxytryptamine] (10 µM) | 0
29 | O=[N+]([O-])c1ccc(Sc2cccc[n+]2[O-])c2nonc12 (2.5 µM) | 0
30 | COc1ccc(CNc2nc(N(CCO)CCO)nc3c2ncn3C(C)C)cc1 (2.5 µM) | 0
31 | CC(CCc1ccccn1)(CCc1ccccn1)C(=O)c1ccccc1 (10 µM) | 0
32 | [O-][n+]1cccc(-c2nc3c(Cl)cccc3cc2[C@@H](Nc2ncnc3cccnc23)C(F)(F)F)c1 [Seletalisib] (10 µM) | 0
33 | Cc1cc2cc(Oc3ccnc(Nc4cccc(CS(=O)(=O)NCCN(C)C)c4)n3)ccc2[nH]1 [Sulfatinib] (10 µM) | 0
34 | O=C1NC(=O)C(c2cnc3ccccn23)=C1c1cn2c3c(cc(F)cc13)CN(C(=O)N1CCCCC1)CC2 (2.5 µM) | 0

Pulled one by one from the list above (two):
Row | Compound | number of time points
31 | CC(CCc1ccccn1)(CCc1ccccn1)C(=O)c1ccccc1 (10 µM) | 0
26 | COc1ncc(Nc2ncc([C@@H](C)N3CCN(S(C)(=O)=O)CC3)cc2-c2nc(C)nc(N)n2)cc1F (10 µM) | 0
